Measured values reported in patent US6660263B2, “Oocydin and methods of use for protection of plants from Oomyocyte pathogens” (HMV Corporation, priority 2000, dated 2003).

Tested on: Aspergillus fumigatus
Type: cell-based

Structure (SMILES): C[C@@H]1[C@H](O)[C@@H](C)/C=C/C=C/C=C/C=C/C=C/C=C/C=C/[C@H](O[C@@H]2O[C@H](C)[C@@H](O)[C@H](N)[C@@H]2O)C[C@@H]2O[C@](O)(C[C@@H](O)C[C@@H](O)[C@H](O)CC[C@@H](O)C[C@@H](O)CC(=O)O[C@H]1C)C[C@H](O)[C@H]2C(=O)O [amphotericin B, reference compound]
- MIC: < 1.0 µg/mL
